Laboratory results published in article PMC11152124.
Results are given in words; binding and its absence hold for the method and conditions named. Binding seen in cells or lysates may run through a third protein. Here binding means that the protein was enriched with, or labelled near, the bait; the list need not be complete.

The chains behind the UniProt entries cited, without tags or fusion partners.
UniProt O15379: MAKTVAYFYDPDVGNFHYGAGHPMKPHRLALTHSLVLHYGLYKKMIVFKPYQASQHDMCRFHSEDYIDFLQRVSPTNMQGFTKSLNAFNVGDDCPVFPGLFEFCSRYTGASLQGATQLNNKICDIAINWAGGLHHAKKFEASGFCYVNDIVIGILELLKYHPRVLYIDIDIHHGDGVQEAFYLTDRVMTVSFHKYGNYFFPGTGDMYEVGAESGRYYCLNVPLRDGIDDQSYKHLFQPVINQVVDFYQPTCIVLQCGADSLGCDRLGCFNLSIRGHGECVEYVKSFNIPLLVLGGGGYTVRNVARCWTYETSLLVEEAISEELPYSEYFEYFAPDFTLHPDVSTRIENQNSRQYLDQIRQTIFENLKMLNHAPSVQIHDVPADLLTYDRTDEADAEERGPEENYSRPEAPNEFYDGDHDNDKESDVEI
UniProt P49792: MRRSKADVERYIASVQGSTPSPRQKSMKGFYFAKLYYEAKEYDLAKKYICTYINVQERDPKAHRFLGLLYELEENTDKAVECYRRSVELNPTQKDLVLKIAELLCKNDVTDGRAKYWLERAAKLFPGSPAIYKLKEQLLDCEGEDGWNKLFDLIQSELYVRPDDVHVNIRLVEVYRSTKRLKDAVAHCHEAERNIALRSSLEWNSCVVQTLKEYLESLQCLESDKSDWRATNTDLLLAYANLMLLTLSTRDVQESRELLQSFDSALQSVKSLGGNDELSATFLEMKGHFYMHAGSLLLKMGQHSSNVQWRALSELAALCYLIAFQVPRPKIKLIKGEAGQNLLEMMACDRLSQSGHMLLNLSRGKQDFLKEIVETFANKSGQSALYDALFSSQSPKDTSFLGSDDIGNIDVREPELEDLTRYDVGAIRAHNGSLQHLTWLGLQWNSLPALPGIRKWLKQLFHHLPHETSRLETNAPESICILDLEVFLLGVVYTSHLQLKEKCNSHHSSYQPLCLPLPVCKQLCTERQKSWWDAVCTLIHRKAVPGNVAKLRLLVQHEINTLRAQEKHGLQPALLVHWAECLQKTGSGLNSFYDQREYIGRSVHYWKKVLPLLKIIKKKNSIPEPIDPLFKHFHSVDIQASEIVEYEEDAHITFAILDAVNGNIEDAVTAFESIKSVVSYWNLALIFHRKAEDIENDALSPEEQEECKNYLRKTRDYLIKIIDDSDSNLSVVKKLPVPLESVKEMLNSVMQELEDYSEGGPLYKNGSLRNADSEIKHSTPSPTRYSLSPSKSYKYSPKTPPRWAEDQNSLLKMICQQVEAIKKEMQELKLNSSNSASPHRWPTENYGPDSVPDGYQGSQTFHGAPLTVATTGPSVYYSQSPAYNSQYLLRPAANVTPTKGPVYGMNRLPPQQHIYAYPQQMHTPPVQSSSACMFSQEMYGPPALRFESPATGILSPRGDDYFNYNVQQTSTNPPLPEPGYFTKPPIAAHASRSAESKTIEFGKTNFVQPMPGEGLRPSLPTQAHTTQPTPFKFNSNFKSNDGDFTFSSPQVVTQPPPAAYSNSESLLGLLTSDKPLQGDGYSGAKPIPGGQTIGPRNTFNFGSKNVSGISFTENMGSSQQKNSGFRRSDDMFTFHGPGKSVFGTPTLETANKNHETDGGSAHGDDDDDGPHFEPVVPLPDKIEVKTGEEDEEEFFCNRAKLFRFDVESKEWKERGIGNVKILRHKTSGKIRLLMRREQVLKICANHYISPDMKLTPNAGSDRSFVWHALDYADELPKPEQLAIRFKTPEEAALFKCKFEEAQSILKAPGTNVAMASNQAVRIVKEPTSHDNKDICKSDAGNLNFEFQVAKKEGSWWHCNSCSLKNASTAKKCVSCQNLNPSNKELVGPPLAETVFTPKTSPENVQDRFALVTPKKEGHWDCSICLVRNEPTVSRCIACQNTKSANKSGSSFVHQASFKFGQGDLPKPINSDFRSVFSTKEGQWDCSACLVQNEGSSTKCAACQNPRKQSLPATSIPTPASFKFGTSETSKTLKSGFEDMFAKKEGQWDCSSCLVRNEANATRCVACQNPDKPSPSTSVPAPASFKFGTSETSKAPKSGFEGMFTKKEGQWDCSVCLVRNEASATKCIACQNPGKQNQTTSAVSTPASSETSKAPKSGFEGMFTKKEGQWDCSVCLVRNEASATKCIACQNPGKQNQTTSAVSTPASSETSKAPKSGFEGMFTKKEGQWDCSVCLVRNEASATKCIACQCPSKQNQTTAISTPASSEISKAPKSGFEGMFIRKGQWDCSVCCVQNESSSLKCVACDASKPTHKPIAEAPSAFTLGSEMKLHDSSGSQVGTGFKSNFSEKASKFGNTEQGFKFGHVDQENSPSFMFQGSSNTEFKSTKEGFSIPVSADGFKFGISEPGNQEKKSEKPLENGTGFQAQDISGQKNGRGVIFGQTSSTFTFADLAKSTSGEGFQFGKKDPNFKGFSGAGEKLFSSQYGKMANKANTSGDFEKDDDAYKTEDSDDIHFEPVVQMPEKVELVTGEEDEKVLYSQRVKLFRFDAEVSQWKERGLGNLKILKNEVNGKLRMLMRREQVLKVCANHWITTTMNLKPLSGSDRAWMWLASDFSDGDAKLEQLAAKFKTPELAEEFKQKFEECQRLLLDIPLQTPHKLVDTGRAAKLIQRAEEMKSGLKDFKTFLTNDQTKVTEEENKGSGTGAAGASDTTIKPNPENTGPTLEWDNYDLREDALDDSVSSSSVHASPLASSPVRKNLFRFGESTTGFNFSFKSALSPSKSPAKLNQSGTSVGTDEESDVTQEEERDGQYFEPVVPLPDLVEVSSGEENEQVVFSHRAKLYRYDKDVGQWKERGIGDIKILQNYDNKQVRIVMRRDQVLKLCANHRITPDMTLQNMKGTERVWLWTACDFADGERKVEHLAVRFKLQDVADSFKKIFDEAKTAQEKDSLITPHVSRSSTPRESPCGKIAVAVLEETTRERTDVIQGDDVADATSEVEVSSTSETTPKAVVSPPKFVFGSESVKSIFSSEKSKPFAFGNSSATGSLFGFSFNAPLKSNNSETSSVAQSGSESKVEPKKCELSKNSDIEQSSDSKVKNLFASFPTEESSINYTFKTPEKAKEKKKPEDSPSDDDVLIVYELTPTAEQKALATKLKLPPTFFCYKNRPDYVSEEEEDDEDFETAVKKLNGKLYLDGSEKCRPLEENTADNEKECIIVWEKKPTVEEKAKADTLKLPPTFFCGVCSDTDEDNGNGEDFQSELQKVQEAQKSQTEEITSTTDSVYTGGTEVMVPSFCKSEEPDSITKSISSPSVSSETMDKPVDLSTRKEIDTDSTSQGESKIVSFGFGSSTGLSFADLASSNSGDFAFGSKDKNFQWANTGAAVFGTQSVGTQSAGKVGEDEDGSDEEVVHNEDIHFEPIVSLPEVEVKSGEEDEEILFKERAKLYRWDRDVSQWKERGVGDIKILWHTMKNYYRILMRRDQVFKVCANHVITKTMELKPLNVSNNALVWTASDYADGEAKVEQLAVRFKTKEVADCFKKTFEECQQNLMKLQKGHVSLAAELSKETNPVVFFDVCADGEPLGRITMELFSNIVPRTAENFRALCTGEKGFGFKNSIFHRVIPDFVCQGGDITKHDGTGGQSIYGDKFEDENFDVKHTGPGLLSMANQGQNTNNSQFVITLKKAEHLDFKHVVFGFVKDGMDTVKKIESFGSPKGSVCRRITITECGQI

Molecular target: histone deacetylase 3 (HDAC3) (human (endogenous in 293T)) (UniProt O15379)
Test: affinity purification with mass spectrometry; HDAC3 immunoprecipitated from control and Nup358-depleted 293T cells as for the co-IP; on-bead digestion with Trypsin/Lys-C, LC-MS/MS

## Nup358, also known as RanBP2 (from UniProt P49792 1-3224)
  binding: binds
